# PubChem BioAssay AID602196, INSERM, 2012
# Screen: 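Genes whose knock-down alters cisplatin killing of lung cancer cells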
# System: human A549 lung cancer cells
# Reagent: siRNA pair against human genes
# Duration: 48 h transfection before cisplatin; time from cisplatin to read-out not stated
# Conditions: cisplatin at a dose killing half of control-siRNA cells; exact dose and duration not given
# Read-out: 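Shift in cisplatin death relative to control siRNA, from -50 (all cells die) to +50 (no cells die); siRNAs harmful on their own scored 0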
# Direction: two-siRNA summed score (-2 to +2): higher = both siRNAs protect from cisplatin killing; -2 means both sensitise; mean protection from cisplatin (shift in death) and protection from cisplatin (shift in death), siRNA C and protection from cisplatin (shift in death), siRNA D: higher = protection from cisplatin killing
# Hit rule: 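siRNAs harmful alone (LDH or WST-1) get 0; others get +1 for less and -1 for more cisplatin killing; genes are active when the two siRNAs give the same sign, summing to ±2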
# Calls: active = both siRNAs shift cisplatin killing the same way; inactive = no consistent shift, or siRNA harmful alone
# Here is one part, drawn at random, of about 23,000 reagents tested. 455 of them (2%) were called active. 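Active includes both protection and sensitisation; some change values fall well beyond the stated -50 to +50 range.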 Unmarked entries are inactive. Reagents against one gene are numbered here. Reagent sequences are not shown. Not stated in the record: the amount of reagent.
target gene,reagent no.,two-siRNA summed score (-2 to +2),mean protection from cisplatin (shift in death) (%),"protection from cisplatin (shift in death), siRNA C (%)","protection from cisplatin (shift in death), siRNA D (%)"
LOC401059,1,0,1.4,4,-1.1
KCNV1,1,0,-33.1,-23.2,-43.1
LOC440450,1,0,5.8,-4.7,16.4
CASP9,1,0,6.7,9.7,3.6
AMMECR1L,1,0,-9.6,-7.6,-11.7
LOC151363,1,0,5.3,10.4,0.2
ESPN,1,0,5.1,7.9,2.3
POU6F2,1,0,0.5,11.9,-10.9
FCGR1A,1,0,-1.1,-4.9,2.8
UGT1A1,1,0,8.6,7.3,9.9
TWF1,1,0,7.1,12.8,1.4
CLVS2,1,0,-6.1,-16.2,4
LOC441618,1,0,5.6,8.6,2.5
PSMD2,1,0,18.4,4.7,32.1
LINC02880,1,0,5,-3.4,13.4
LOC388635,1,0,14.8,11,18.6
LOC339804,1,1,11,3.7,18.2
RNF207,1,0,8,-1.3,17.2
RNF207,2,1,18.8,17.3,20.3
SLC39A12,1,0,1.3,-12.3,14.9
CCDC120,1,0,-9.3,-9.3,-9.3
LOC400526,1,0,3.9,12.8,-5
LDLRAD3,1,-1,4.3,27.6,-19
LOC441756,1,1,29.3,44.6,14
LIPA,1,0,0.2,0.9,-0.6
FRMD5,1,0,-9.3,-10.2,-8.3
LOC399888,1,0,4.3,8.2,0.3
IMPACT,1,-1,-10.9,-31.2,9.4
LOC338825,1,0,2,-2.7,6.7
CRYBA1,1,1,9.2,-12.3,30.7
RNPEP,1,0,10.2,12.5,7.8
EVPL,1,0,-4.5,-2.5,-6.6
HTR1F,1,1,13.2,16.3,10
PHF1,1,-1,-13.3,-37.7,11.1
H2AC20,1,0,10.6,5,16.3
PGBD3,1,0,3.1,7.6,-1.4
LOC441413,1,0,3.7,6.1,1.3
SDF2,1,-1,-2.1,-29.2,25
ENTR1P1,1,0,8.6,12.7,4.5
DEK,1,0,9.4,7.8,11
OR10T2,1,0,-6.5,-4.3,-8.6
ACTG2,1,0,-7.5,-1.1,-13.8
GKN1,1,-1,-10.7,5,-26.3
BCL3,1,1,9.1,15,3.1
FAM120C,1,0,9.6,12.9,6.4
LOC392793,1,0,0.7,-3,4.4
LOC401020,1,0,9.2,14.9,3.5
COL4A5,1,-1,-8.4,-2.5,-14.2
DDIAS,1,0,-1.8,-15.2,11.7
HSPG2,1,-1,-9.5,-21,2
C19orf48P,1,0,2.9,1,4.9
TMEM243,1,0,4.1,5.1,3.1
LOC158796,1,0,15.3,11.8,18.9
PRX,1,0,-8.5,-9.9,-7.1
ANKRD9,1,0,12.3,8.3,16.4
TPTE,1,0,-0.4,-3.9,3.1
MYO18A,1,0,8.6,10.8,6.4
MYO18A,2,1,11.3,9.4,13.2
